Where “and” joins values, the source holds several entries; their conditions need not be identical. Equal entries are not always repeated. Out of some 200,000 compounds screened, about 25 (0.01%) were called active. Inconclusive results, whose numbers are uncertain, are shown with a selection of clear calls. Calls come from the whole dose curve; as a rule, active = well fitted inhibition curve with a large enough effect in the signal ratio, with a control signal flat (not every such curve was filed as active); inconclusive = small, poorly fitted or top-dose-only effect, or effect the other way, or a change in a side signal; inactive = flat fitted curve, though single readings scatter; the % refers to the signal ratio. Where the call is inconclusive, the potency comes from a doubtful curve fit.
Test: qHTS Assay for Modulators of Lamin A Splicing
Details: HeLa LMNA splicing GFP/RFP minigene ratio, 48 h; ratio change, negative = inhibition: at 46.1 µM (top of the series) unless noted
Outline: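 S3 HeLa stable clones carrying a lamin A-EGFP splicing minigene plus DsRed2 were seeded at 600 cells/well in Opti-MEM with 2% FBS, pin-dosed and incubated 48 h at 37°C. Acumen cytometry (488 nm) gave the GFP/RFP total-intensity ratio.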
In the case of `CCCC1=C(C(=O)OCC)C(c2ccc(F)cc2)n2ncnc2N1` (configuration not stated), the ratio change, negative = inhibition was inconclusive: 1.53%. For `O=S(=O)(NCC(c1ccco1)N1CCN(c2ccc(F)cc2)CC1)c1cc(F)ccc1F` (configuration not stated), the ratio change, negative = inhibition was inconclusive: -18% [at 46 µM]. In the case of `CCOc1ccc(C2C(C(C)=O)=C(O)C(=O)N2CCc2c[nH]c3ccccc23)cc1` (configuration not stated), the ratio change, negative = inhibition was “inactive”. For `CN(C)C(=O)CSc1nnc(-c2ccncc2)n1Cc1ccco1`, the ratio change, negative = inhibition was inconclusive: -3.59% [at 9.22 µM]. For `CC(OC(=O)c1ccc(Cl)c(S(=O)(=O)Nc2ccc(F)cc2)c1)C(=O)NC(N)=O` (configuration not stated), the ratio change, negative = inhibition was “inactive”. For `Cc1ccc(/C(O)=C2\C(=O)C(=O)N(Cc3cccnc3)C2c2ccccc2[N+](=O)[O-])cc1` (configuration not stated), the ratio change, negative = inhibition was “inactive”. With `O=C(NCc1ccccc1)c1c2c(nc3ccccc13)C(=O)N(C1CCCCC1)C2` the ratio change, negative = inhibition was “inactive”. For `CCc1ccccc1N1C(=O)N(Cc2cc(=O)n3ccccc3n2)c2ccccc2S1(=O)=O`, the ratio change, negative = inhibition was inconclusive: 0.304% [at 46 µM]. In the case of `Nc1nc(Nc2ccc(Cl)cc2Cl)nc(C(F)(F)F)n1`, the ratio change, negative = inhibition was inconclusive: 5.96%. In the case of `CCN(Cc1ccccc1)C(=O)Cn1c(=O)cc(C)c2c(C)nn(-c3cccc(F)c3)c21`, the ratio change, negative = inhibition was “inactive”. With `COc1ccc(CNC(=O)CCn2c(=O)c3cccn3c3ccc(F)cc32)cc1OC` the ratio change, negative = inhibition was inconclusive: 18.8% [at 46 µM]. In the case of `CCC(=O)c1ccc(OCC(O)Cn2nnc3ccccc32)cc1` (configuration not stated), the ratio change, negative = inhibition was inconclusive: 8.42% [at 46 µM]. For `COC(=O)c1c(NC(C)=O)csc1C`, the ratio change, negative = inhibition was inconclusive: 8.89% [at 46 µM]. For `CC(C)C(c1nnnn1Cc1ccc(F)cc1)N1CCN(c2ccc(O)cc2)CC1` (configuration not stated), the ratio change, negative = inhibition was inconclusive: -32.6% [at 46 µM]. With `CN(C(=O)c1ccccc1C(=O)OCC(=O)NCc1cccs1)C1CCCCC1` the ratio change, negative = inhibition was “inactive”. For `CCOc1ccc(/C=N/n2c(SC)nnc(C(C)(C)C)c2=O)cc1`, the ratio change, negative = inhibition was inconclusive: 2.42%. For `CC(C)(C)NC(=O)Cn1c(SCC(=O)N2CCCCCC2)nc2ccccc21`, the ratio change, negative = inhibition was inconclusive: 11.4%. With `CC(=O)c1ccc(NC(=O)CN2C(=O)c3cccnc3Sc3ccccc32)cc1` the ratio change, negative = inhibition was inconclusive: -0.969% [at 46 µM]. With `CCn1c2ccccc2c2nc3cc(S(=O)(=O)N4CCOCC4)ccc3nc21` the ratio change, negative = inhibition was “inactive”. In the case of `O=C(NCC(c1cccnc1)N1CCOCC1)C(=O)Nc1cccc(Cl)c1` (configuration not stated), the ratio change, negative = inhibition was “inactive”. For `Cc1cc2c(C)ccc(C)c2nc1SCC(=O)c1cccs1`, the ratio change, negative = inhibition was “inactive”. In the case of `CCOc1ccc(NC(=O)CN2C(=O)CCSc3ccc(S(=O)(=O)N4CCCC4)cc32)cc1`, the Potency was inconclusive: 35.5 µM [cytotoxic, single point]. With `CN1CCc2nc(NC(=O)c3cccc(S(=O)(=O)N4CCc5ccccc54)c3)sc2C1` the ratio change, negative = inhibition was “inactive”. In the case of `CCCCCC(=O)Cc1cc(O)cc(O)c1C(=O)Oc1cc(CC(=O)CCCCC)c(C(=O)O)c(OC)c1`, the ratio change, negative = inhibition was inconclusive: 31.5%. With `CCC(C)N(CC(=O)Nc1cccc(C)c1C)C(=O)CCl` (configuration not stated) the ratio change, negative = inhibition was inconclusive: -17.2% [at 46 µM]. With `Cc1ccc(C2(CCNS(=O)(=O)c3ccc(C)cc3)CCOC(C(C)C)C2)cc1` (configuration not stated) the Potency was inconclusive: 35.5 µM [falling, single point]. In the case of `COc1cccc(C(=O)Nc2ccc3nc(SCc4ccc(C)cc4)sc3c2)c1`, the ratio change, negative = inhibition was inconclusive: 14.4% [at 46 µM]. With `CC(NC(=O)C1CCCCC1)C(=O)NC1=NCCS1` (configuration not stated) the ratio change, negative = inhibition was “inactive”. For `Cc1cccc(C)c1NC(=O)CSCC(=O)c1ccc(O)c(O)c1`, the ratio change, negative = inhibition was inconclusive: -20.5%. For `COc1ccc(C)c2sc(N(Cc3cccnc3)C(=O)COc3ccccc3)nc12`, the ratio change, negative = inhibition was inconclusive: 30.3% [at 46 µM]. With `CC1CCN(C(c2ccc(N(C)C)cc2)c2nnnn2Cc2ccccc2)CC1` (configuration not stated) the ratio change, negative = inhibition was “inactive”. In the case of `Cc1ccc(N=C2SC(C(=O)Nc3ccc(OC(F)(F)F)cc3)C(N)=C2C(=O)Nc2c(C)cc(C)cc2C)cc1` (configuration not stated), the Potency was inconclusive: 35.5 µM [cytotoxic, single point]. For `COc1cc(/C=N/N=C(/C(=O)c2ccccc2)c2ccccc2)cc(OC)c1O`, the ratio change, negative = inhibition was inconclusive: -1.24%. With `COc1ccccc1NC(=S)N(Cc1ccco1)Cc1cc2cc(C)c(C)cc2[nH]c1=O` the ratio change, negative = inhibition was inconclusive: -11.8%. In the case of `COc1ccccc1NC(=O)/C(C#N)=C/c1c(C)nn(-c2ccc(F)cc2)c1Cl`, the ratio change, negative = inhibition was “inactive”. In the case of `COCCOC(=O)C1=C(C)NC(C)=C(C(=O)OC(C)C)C1c1cccc([N+](=O)[O-])c1` (configuration not stated), the Potency was inconclusive: 0.0018 µM [inhibitor, full curve, poor fit] and the ratio change, negative = inhibition was inconclusive: -6.44% [at 46 µM]. For `O=C(O)c1cc(Br)ccc1NN=C1CCCCC1`, the ratio change, negative = inhibition was inconclusive: -9.98%. In the case of `CN(C(=O)c1cnc(N2CCOCC2)c2ccccc12)c1ccccc1F`, the ratio change, negative = inhibition was “inactive”. For `NC(=O)c1cc(N2C(=O)C=CC2=O)ccc1Cl`, the Potency was inconclusive: 35.5 µM [falling, single point]. For `CN1C(C(=O)Nc2ccccn2)=C(O)c2ccccc2S1(=O)=O`, the ratio change, negative = inhibition was inconclusive: 2.67% and inconclusive: -17.4%. For `CCCCn1nc(C(=O)N[C@@H](CCSC)c2nc3ccccc3[nH]2)c2ccccc2c1=O`, the ratio change, negative = inhibition was inconclusive: 0.904%. For `O=C(/C=C/c1ccc([N+](=O)[O-])cc1)NCc1ccccn1`, the Potency was inconclusive: 35.5 µM [fluorescent, single point]. With `CCOC(=O)c1nc2sc3c(c2c(=O)n1C(C)C(=O)OCC)CCCC3` (configuration not stated) the ratio change, negative = inhibition was inconclusive: 44.7% [at 46 µM]. With `CC(=O)c1ccc(S(=O)(=O)Nc2ccc(C(=O)NCC(c3ccccc3)N(C)C)cc2)cc1` (configuration not stated) the ratio change, negative = inhibition was inconclusive: -30.4% [at 46 µM]. In the case of `CCOC(=O)c1c(C)nc2sc3c(=O)[nH]cnc3c2c1-c1ccc(OC)cc1`, the ratio change, negative = inhibition was “inactive”. In the case of `CN1CCN(c2nc(-c3ccc(N(C)C)cc3)nc3ccccc23)CC1`, the ratio change, negative = inhibition was inconclusive: -26.4%. In the case of `CC(C)(C)c1ccc(-c2nc(-c3ccncc3)no2)cc1`, the Potency was inconclusive: 35.5 µM [fluorescent, single point]. In the case of `COc1ccccc1Cn1c(CNS(=O)(=O)c2ccc(Cl)s2)nc2cccnc21`, the ratio change, negative = inhibition was “inactive”. With `CC1(C)CC(c2csc(N)n2)CCO1` (configuration not stated) the ratio change, negative = inhibition was inconclusive: -11.1%. For `CC1(OC(=O)C2CCCC2)C(=O)C=C2C=C(c3ccsc3)N(Cc3ccco3)C=C2C1=O` (configuration not stated), the ratio change, negative = inhibition was inconclusive: -2.77% [at 9.22 µM]. With `CCOC(=O)c1ccc(N2CCN(c3cccc(Cl)c3)CC2)c(NC(=O)Nc2ccc(Cl)cc2)c1` the ratio change, negative = inhibition was inconclusive: -20.6% [at 46 µM]. With `COc1cccc(NC(=O)CSc2nnc(-c3cc(C)n(-c4ccccc4)c3C)o2)c1` the ratio change, negative = inhibition was “inactive”. For `COc1ccc(-c2noc(N3CCN(c4cccc(Cl)c4)CC3)n2)cc1OC`, the ratio change, negative = inhibition was inconclusive: -18.7% [at 46 µM]. In the case of `Cc1ccc2c(n1)sc1c(-c3ccc(Br)cc3)c(C#N)c(N)nc12`, the ratio change, negative = inhibition was “inactive”. In the case of `CCOc1ccc(C(=O)CSc2nnc3cc(C)c4ccccc4n23)cc1`, the ratio change, negative = inhibition was “inactive”. For `Cc1ccc2c(ccc(=S)n2C)c1`, the ratio change, negative = inhibition was inconclusive: -19.3% [at 46 µM]. With `COc1ccc(-n2c(Cc3cccn3C)nnc2SCC(=O)Nc2ccc3c(c2)OCCO3)cc1` the ratio change, negative = inhibition was “inactive”. With `COCCn1c(NC(=S)NC(=O)C2CC2)cc(=O)[nH]c1=O` the ratio change, negative = inhibition was inconclusive: 30.6% [at 46 µM]. With `O=C(Nc1ccc2nc(SCc3ccccc3)sc2c1)c1cccc(F)c1` the ratio change, negative = inhibition was inconclusive: 7.13% [at 46 µM]. For `COc1ccc(Nc2nnc(-c3ccc(O)cc3)c3ccccc23)cc1C(N)=O`, the ratio change, negative = inhibition was “inactive”. For `COc1ccc(OCCSc2nc(C)c(Cc3ccccc3)c(=O)[nH]2)cc1`, the ratio change, negative = inhibition was inconclusive: 51.4% [at 46 µM]. With `Cc1ccc(CN(C(=O)COc2ccc(Cl)c(C)c2)c2ccccn2)o1` the ratio change, negative = inhibition was “inactive”. With `CN(C)/C=N/c1nc2nccc(-c3ccc(Cl)cc3)n2n1` the ratio change, negative = inhibition was inconclusive: -8.97% [at 46 µM]. In the case of `CCc1ccc(C(=O)NNc2ccc(Cl)cc2)cc1`, the Potency was inconclusive: 4.47 µM [activator, full curve]. For `CC1=C(C(=O)Nc2ccccc2C)C(c2ccc(C)o2)NC(=S)N1` (configuration not stated), the ratio change, negative = inhibition was inconclusive: 0.286%. With `O=C(CCc1ccccc1)NNc1ccc(F)cc1` the Potency was inconclusive: 1.41 µM [activator, full curve, poor fit]. In the case of `COc1ccc(-c2nc3c(Br)c(N)c(Br)cc3o2)cc1`, the ratio change, negative = inhibition was “inactive”. With `CCn1nnnc1SCC(=O)c1cc(OC)ccc1OC` the ratio change, negative = inhibition was “inactive”. For `COCCNC(=O)C(=O)NCC(c1cccnc1)N1CCN(c2ccccc2OC)CC1` (configuration not stated), the Potency was inconclusive: 35.5 µM [cytotoxic, single point]. For `CCOC(=O)CSc1nc2c(sc3ccccc32)c(=O)n1Cc1ccc(C)cc1`, the ratio change, negative = inhibition was inconclusive: 19% [at 46 µM]. For `Cc1ccc(-c2cn3c(n2)sc2cc(C(=O)NCc4cccs4)ccc23)cc1`, the ratio change, negative = inhibition was “inactive”. For `COc1ccc(-c2oc3ncnc(NCCCN4CCOCC4)c3c2-c2ccc(OC)cc2)cc1`, the ratio change, negative = inhibition was inconclusive: -33.1%. In the case of `CCCCNC(=O)Cn1c(=O)cc(C)c2c(C)nn(-c3ccc(CC)cc3)c21`, the ratio change, negative = inhibition was “inactive”. For `CCCC(=O)NC(=S)Nc1ccccc1C(F)(F)F`, the ratio change, negative = inhibition was “inactive”. In the case of `CC(C)N(C(=O)COC(=O)[C@H](C)NC(=O)c1ccco1)c1ccccc1`, the ratio change, negative = inhibition was inconclusive: 15.9% [at 46 µM]. In the case of `Cc1ccc(C(=O)/C=C/Nc2ccccc2C(N)=O)cc1`, the ratio change, negative = inhibition was “inactive”. With `CC(=O)c1sc(N/N=C2\CC3CC2C(C)C3(C)C)nc1C` (configuration not stated) the ratio change, negative = inhibition was “inactive”. With `CCN(c1ncnc2c1cnn2-c1cc(Cl)ccc1C)C1CCCCC1` the ratio change, negative = inhibition was inconclusive: -32% [at 46 µM]. With `Cn1c(Cn2c(=O)sc3ccccc32)nnc1SCC(=O)NCC1CCCO1` (configuration not stated) the ratio change, negative = inhibition was “inactive”. In the case of `Cc1ccc(N2CCN(CCc3nc4cc(NC(=O)c5ccco5)ccc4n3C)CC2)cc1`, the ratio change, negative = inhibition was inconclusive: -12.6%. For `O=C(CSc1nc2ccccc2s1)NCc1ccc2c(c1)OCO2`, the ratio change, negative = inhibition was “inactive”.

Source: PubChem BioAssay AID1487 (National Center for Advancing Translational Sciences (NCATS), 2009)
% is set by controls: 0 for no effect and ±100 for the full control effect; potency is the fitted concentration of half-maximal effect.
